Results on three substances are retold here after publication PMC3826745.

No constants are given. Whether binding was seen depends on the method and setting. In cells and extracts the contact can be indirect. For some assays here: Binding calls can cover weak binding; strength is not graded here. Where a sequence is shown, tags or fusion partners need not be part of it.

Test [1] deals with T1, N-terminally tagged Neurospora crassa eIF3h (Neurospora crassa) (UniProt Q7S9Y9).
T1 sequence: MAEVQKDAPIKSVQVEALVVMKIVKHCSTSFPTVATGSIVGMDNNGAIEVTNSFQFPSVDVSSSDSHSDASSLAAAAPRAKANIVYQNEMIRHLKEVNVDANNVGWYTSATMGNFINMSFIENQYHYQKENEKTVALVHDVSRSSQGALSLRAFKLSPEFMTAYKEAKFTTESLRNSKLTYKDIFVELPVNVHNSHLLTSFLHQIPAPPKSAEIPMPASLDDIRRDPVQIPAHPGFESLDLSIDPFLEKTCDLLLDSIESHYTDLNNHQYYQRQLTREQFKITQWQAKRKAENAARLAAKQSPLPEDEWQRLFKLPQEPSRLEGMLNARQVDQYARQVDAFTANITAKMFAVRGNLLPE
The experiment in a line: co-IP; anti-FLAG affinity purification from N. crassa extracts, FLAG peptide elution, Coomassie gel; N-terminally tagged eIF3h in ΔeIF3h, N-terminally tagged eIF3k in ΔeIF3k, or heterokaryon with N-terminally tagged eIF3k and eIF3l (all 12 subunits present).

Test [2] addresses T2, N-terminally tagged Neurospora crassa eIF3l (Neurospora crassa) (UniProt Q7SB62).
T2 sequence: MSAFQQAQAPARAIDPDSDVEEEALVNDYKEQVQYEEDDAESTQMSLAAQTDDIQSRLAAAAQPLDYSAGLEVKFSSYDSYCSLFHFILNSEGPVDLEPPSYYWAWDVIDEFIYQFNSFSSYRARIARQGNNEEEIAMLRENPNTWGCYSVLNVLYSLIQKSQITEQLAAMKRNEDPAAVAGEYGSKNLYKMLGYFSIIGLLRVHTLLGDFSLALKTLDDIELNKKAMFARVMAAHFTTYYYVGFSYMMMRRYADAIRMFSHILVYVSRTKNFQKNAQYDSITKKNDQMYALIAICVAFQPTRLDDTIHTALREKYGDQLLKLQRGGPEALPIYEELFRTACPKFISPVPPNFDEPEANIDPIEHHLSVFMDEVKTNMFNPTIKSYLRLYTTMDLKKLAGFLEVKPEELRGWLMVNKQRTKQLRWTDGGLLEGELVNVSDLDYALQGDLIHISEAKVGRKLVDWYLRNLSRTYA
The experiment in a line: co-IP; anti-FLAG affinity purification from N. crassa extracts, Coomassie gel and anti-FLAG Western blot; N-terminally tagged eIF3k or eIF3l in the ΔeIF3kl double knock-out background. For orientation: A western blot detects proteins with antibodies after separation by electrophoresis.

Test [3] deals with T3, N-terminally tagged Neurospora crassa eIF3k (Neurospora crassa) (UniProt Q7S2R9).
T3 sequence: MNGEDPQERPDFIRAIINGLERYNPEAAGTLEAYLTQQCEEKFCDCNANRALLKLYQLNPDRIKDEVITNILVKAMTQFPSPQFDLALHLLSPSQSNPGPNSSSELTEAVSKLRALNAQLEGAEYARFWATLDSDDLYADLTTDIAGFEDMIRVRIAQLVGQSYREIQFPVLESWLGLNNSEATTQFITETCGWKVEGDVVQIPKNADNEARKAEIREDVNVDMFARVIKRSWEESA
The description is as above.

As for Neurospora crassa eIF3d, in test [1], the binding entry is on record as “binds”. On to phenylalanyl tRNA synthetase beta chain, for which the binding result in test [2] and in test [3] was “no binding” each time. Consider tRNA ligase, for which the binding result in test [2] and in test [3] was “no binding” each time.
